Measured data: PubChem BioAssay AID1671195 (Yale University, 2021)

Test: 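Regulators of LDL receptor activity judged by labelled LDL uptake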 (primary screen)
System: human Huh7 hepatoma cells
Knock-down reagent: siRNA pool against human genes, 18 nM
Timing: about 2 to 2.5 days of knockdown, then 8 h LDL uptake
Challenge: DiI-labelled LDL at 30 µg/ml for 8 h, in lipoprotein-deficient serum medium
Read-out: 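Per-cell DiI-LDL intensity by automated imaging; well means scaled to the plate median and given as a robust z-score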
Reading the numbers: robust z-score: higher = more LDL uptake after knockdown
Rule for the call: 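a gene counts as active if at least two replicate z-scores exceed ±2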
This is one part, drawn at random, of about 22,000 reagents tested. Over the whole deposit, about 1,510 (6.9%) got an active call. 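Active includes knockdowns raising or lowering LDL uptake; positive z-scores mean more uptake, negative mean less.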 Reagents against one gene are numbered here.

Target gene	reagent no.	robust z-score, replicate 1	robust z-score, replicate 2	robust z-score, replicate 3	activity call
ASPA	1	0.701	1.56	-0.212	inactive
CCDC7	1	1.68	1.73	1.52	inactive
CCDC7	2	0.25	-0.646	-0.0753	inactive
TBC1D22A	1	-0.0918	0.475	0.149	inactive
PIP4K2B	1	0.0274	1.19	-0.318	inactive
OR2W5	1	-0.463	0.0861	-0.629	inactive
TMEM121B	1	1.08	-0.353	1.01	inactive
GCM1	1	-0.0174	-0.438	-1.22	inactive
EFCAB3	1	0.871	0.95	-0.104	inactive
ZFP82	1	-0.327	-0.719	-0.544	inactive
RUVBL1	1	0.689	0.99	-0.0369	inactive
SPNS1	1	-0.79	-0.0118	-0.417	inactive
HYPK	1	-0.982	-0.833	-2.14	inactive
ADPRM	1	0.357	0.43	-0.118	inactive
ACER3	1	3.02	2.66	2.71	active
PCDHA10	1	0.295	0.261	0.0827	inactive
LINC00547	1	-0.859	-0.845	-0.805	inactive
SNRPF	1	-0.644	-0.346	-1.38	inactive
LAS1L	1	-0.349	-0.513	-0.797	inactive
IFT27	1	1.59	2	0.281	inactive
HIPK2	1	-1.01	-0.459	-0.0401	inactive
LOC440576 (retired record)	1	1.64	0.93	1.16	inactive
CENPU	1	1.85	1.66	1.36	inactive
EIF2B2	1	-1.13	-0.494	-0.678	inactive
ABCA2	1	-0.34	-0.156	-0.135	inactive
VWF	1	-0.607	-0.215	-0.184	inactive
LOC402072 (retired record)	1	1.31	1.82	1.43	inactive
EFCAB8	1	0.401	0.122	0.683	inactive
LOC400651 (retired record)	1	-1.15	-1.31	-1.31	inactive
KDM6B	1	-2.37	-2.39	-1.82	active
ARB2BP	1	3.04	2.09	2.44	active
DIS3L2	1	-0.297	-0.482	-0.77	inactive

Part of the list above, set out differently.
{"Target gene":"SNRPF","reagent no.":1,"robust z-score, replicate 1":-0.644,"robust z-score, replicate 2":-0.346,"robust z-score, replicate 3":-1.38,"activity call":"inactive"}
{"Target gene":"LAS1L","reagent no.":1,"robust z-score, replicate 1":-0.349,"robust z-score, replicate 2":-0.513,"robust z-score, replicate 3":-0.797,"activity call":"inactive"}
{"Target gene":"IFT27","reagent no.":1,"robust z-score, replicate 1":1.59,"robust z-score, replicate 2":2,"robust z-score, replicate 3":0.281,"activity call":"inactive"}
{"Target gene":"HIPK2","reagent no.":1,"robust z-score, replicate 1":-1.01,"robust z-score, replicate 2":-0.459,"robust z-score, replicate 3":-0.0401,"activity call":"inactive"}
{"Target gene":"LOC440576 (retired record)","reagent no.":1,"robust z-score, replicate 1":1.64,"robust z-score, replicate 2":0.93,"robust z-score, replicate 3":1.16,"activity call":"inactive"}
{"Target gene":"CENPU","reagent no.":1,"robust z-score, replicate 1":1.85,"robust z-score, replicate 2":1.66,"robust z-score, replicate 3":1.36,"activity call":"inactive"}
{"Target gene":"EIF2B2","reagent no.":1,"robust z-score, replicate 1":-1.13,"robust z-score, replicate 2":-0.494,"robust z-score, replicate 3":-0.678,"activity call":"inactive"}

Further records follow:
Target gene	reagent no.	robust z-score, replicate 1	robust z-score, replicate 2	robust z-score, replicate 3	activity call
STAG3L1	1	-0.905	-0.99	-0.424	inactive
SLC35A3	1	-0.837	-0.462	-0.468	inactive
PDCL3	1	-0.484	-0.797	-0.505	inactive
JTB	1	-0.557	0.215	-1.48	inactive
GLRB	1	1.8	1.91	1.47	inactive
MBOAT1	1	0.948	1.32	0.865	inactive
KDM1B	1	0.653	-0.223	0.0949	inactive
UNKL	1	0.406	0.0155	0.757	inactive
UNKL	2	-0.445	0.186	-0.378	inactive
RARRES1	1	0.607	-0.0992	-0.486	inactive
CCS	1	2.48	0.965	1.58	inactive
FKBP6P2	1	-1.15	-1.19	-1.22	inactive
SCD5	1	-0.917	-0.946	-0.857	inactive
SLC10A5	1	-0.594	-0.347	-0.134	inactive
AKAP17A	1	-0.572	-1.2	-0.288	inactive
SH2B2	1	1.85	1.1	-0.318	inactive
PLAG1	1	4.63	4.38	3.88	active
HHIPL1	1	-0.527	-0.521	-0.614	inactive
OCSTAMP	1	1.12	1.03	1.41	inactive
POLR3D	1	0.537	-1.11	0.483	inactive
LOC388421 (retired record)	1	-0.497	0.176	-0.226	inactive
CDK9	1	-0.551	0.345	0.6	inactive
LOC401021	1	-1.08	-1.24	-1.08	inactive
TAF12	1	0.832	0.0559	0.988	inactive
MTPN	1	1.9	1.11	3.06	active
LOC403312	1	-1.83	-1.57	-1.61	inactive
LPAR4	1	0.0636	-0.384	-0.263	inactive
GBP7	1	-0.976	-0.997	-0.986	inactive
ADGRB3	1	-1.16	-1.56	-1.84	inactive
ELL3	1	0.903	0.921	0.856	inactive
CCDC80	1	-0.628	0.794	-0.542	inactive
LINC02595	1	-0.164	0.251	0.474	inactive
FABP7	1	-0.538	-0.868	-0.639	inactive
SOX15	1	-0.799	-0.431	0.182	inactive
THAP10	1	1.66	1.25	2.68	inactive
ACTN4	1	-1.65	-1.7	-0.675	inactive
